This note sets out measurements from PubChem BioAssay AID2685 (National Center for Advancing Translational Sciences (NCATS), 2010).

A short description of this assay: qHTS Assay for Lipid Storage Modulators in Drosophila S3 Cells.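 For cell number change: cells counted by Cell Tracker Red CMTPX staining in the red channel.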 Conditions: BODIPY lipid droplet fluorescence, 18-24 h; for cell number change: measured here: cell count max response, cells fed with added oleic acid. In outline: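 Drosophila S3 cells loaded with oleic acid (400 uM, as added) and compounds at several concentrations; lipid droplets imaged by 488-nm laser-scanning cytometry, 500–530 nm intensity and object ratio to cell channel. Percent activity normalized to 20 uM Triacsin C.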
(In qHTS, concentration-response curves come from the screen itself.)

Where [1] appears, read: measured here: lipid fluorescence (Fed channel) AC50, cells fed with added oleic acid.
[2] abbreviates: measured here: cell number channel AC50, cells fed with added oleic acid.

Molecules are shown by their SMILES. This is one part of the list. Shown are side measurements of this screen, not its main read-out; they come without a call. Most of these compounds were active or inconclusive in the main read-out, so they are no random draw. The note in brackets gives the kind of curve behind each potency; many fits are weak.

As for `O=C(CSc1ncn[nH]1)NC1CC2CCC1C2` (configuration not stated), the cell number change was -1.02%.
Usually AC50 stands for the midpoint of the concentration-response curve, whichever way the signal moves. Read a low AC50 as greater potency. For the compound `Cc1ccc(S(=O)(=O)N2CCC(C(=O)OCC(=O)N(CC(C)C)C3CCS(=O)(=O)C3)CC2)cc1C` (configuration not stated), the cell number change was -26.6%. Further, the AC50 under setting [1] is 32.6 µM [falling, single point].
In the case of `COc1cc(/C=C2/SC(=S)N(Cc3ccccc3)C2=O)ccc1OS(C)(=O)=O`, the cell number change was found to be 0.173%. Besides, the AC50 under setting [1] is 1.46 µM [rising, full curve, poor fit].
Take `CN(CC(=O)NC(=O)NCc1ccccc1)CC(=O)Nc1ccc(Cl)c(Cl)c1`: the cell number change was -28.9%. Under setting [1], the half-maximal activity concentration (AC50) is 18.4 µM [falling, partial curve].
Take `COc1cc(OC)cc(C(=O)Nc2ccc(C(=O)NCC3CCCO3)cc2)c1` (configuration not stated): the cell number change was -19.2%. In addition, under setting [1], the AC50 is 18.4 µM [falling, partial curve].
Regarding `COc1ccc(OC)c(CN2CCN(c3ccccc3OC)CC2)c1`, the cell number change turned out to be 1.27%.
`CCOc1ccc(S(=O)(=O)N/N=C(\C)c2ccc3c(c2)OCO3)cc1`: the cell number change is 4.96%.
On to `CC(=O)Nc1ccc(-c2ccc(NC(C)=O)c(O)c2)cc1O`, for which the cell number change worked out at 20.9%. Further, the AC50 under setting [2] is 6.51 µM [falling, single point].
Consider `O=c1ccc(NS(=O)(=O)c2ccccc2Cl)cn1Cc1ccc(Cl)c(Cl)c1`, for which the cell number change was -46%.
With `Cc1ccc(C(C)NC(=O)Cn2nc(C)c([N+](=O)[O-])c2C)cc1` (configuration not stated), the cell number change is 26%. Also, the half-maximal activity concentration (AC50) under setting [2] was 6.51 µM [rising, single point]. Besides, the half-maximal activity concentration (AC50) under setting [1] was 0.082 µM [rising, full curve, poor fit].
`COc1ccc(OCCc2nnc(N)s2)cc1`: the cell number change was -17%. In addition, under setting [1], the concentration at half-maximal activity (AC50) was 29.1 µM [falling, single point].
As to `COc1ccc(NC(=O)N2CCCC2C(=O)NCCc2ccccc2)cc1` (configuration not stated), the cell number change worked out at 14.5%. In addition, the half-maximal activity concentration (AC50) under setting [1] is 6.51 µM [falling, single point].
As for `COCCNC(=O)C(c1cccs1)N(C(=O)Cn1nnc2ccccc21)c1ccc2c(c1)OCO2` (configuration not stated), the cell number change is -10.1%.
For `Cc1cc(C(=O)CSc2nnc(-c3ccc(F)cc3)o2)c(C)n1CC1CCCO1` (configuration not stated), the cell number change is -28.2%. Besides, under setting [1], the concentration at half-maximal activity (AC50) is 29.1 µM [falling, single point].
Consider `O=C/C(=C\Nc1ccc(S(=O)(=O)CCO)cc1)c1nc2cc(Cl)ccc2o1`, for which the cell number change was found to be 4.15%.
Consider `Nn1c(Nc2ccccc2)nc2sc3c(c2c1=O)CCC3`, for which the cell number change is -26.1%. Besides, the concentration at half-maximal activity (AC50) under setting [1] was 0.164 µM [rising, full curve, poor fit].
For `CCCNC(=O)C1CCN(S(=O)(=O)c2ccc3[nH]c(=O)ccc3c2)CC1`, the cell number change turned out to be 0.288%. Further, under setting [1], the half-maximal activity concentration (AC50) is 1.84 µM [rising, partial curve].
With `CCC(C)(C)NC(=O)C(c1cccn1C)N(Cc1ccc(OC)cc1)C(=O)Cn1nnc2ccccc21` (configuration not stated), the cell number change was -34.5%. Besides, the AC50 under setting [2] is 8.2 µM [falling, partial curve]. For the same compound, the AC50 under setting [1] was 8.2 µM [falling, partial curve].
With `CC(C)=C1C2CCC1C1C(=O)N(c3nc(-c4ccc(C(C)C)cc4)c(C)s3)C(=O)C21` (configuration not stated), the cell number change is -25.2%. Besides, the half-maximal activity concentration (AC50) under setting [1] is 23.1 µM [falling, single point].
With `CC/C=C\C/C=C\C/C=C\CCCCCCCC(=O)O`, the cell number change is -31.4%. In addition, the AC50 under setting [2] is 29.1 µM [falling, single point].
Turning to `Cc1cccc(CSc2nnc(CCCCCNC(=O)OC(C)(C)C)o2)c1`, the cell number change amounted to 16.6%. Moreover, under setting [1], the AC50 is 29.1 µM [rising, single point].
With `CCc1ccc(NCc2nc3ccccc3c(=O)[nH]2)cc1`, the cell number change is 47.5%. The AC50 under setting [2] is 5.8 µM [rising, full curve]. Also, the half-maximal activity concentration (AC50) under setting [1] was 3.66 µM [rising, single point].
For the compound `COc1ccc(OC)c(CNS(=O)(=O)c2cn(C)cn2)c1`, the cell number change is -16.7%. For the same compound, the half-maximal activity concentration (AC50) under setting [1] was 29.1 µM [rising, single point].
`CCc1cccc(NC(=O)COc2ccccc2)c1`: the AC50 under setting [2] was 3.26 µM [falling, partial curve].
As for `COc1ccccc1NC(=O)N1CCN(C)CC1`, the cell number change worked out at 39.4%. The half-maximal activity concentration (AC50) under setting [2] is 32.6 µM [rising, single point].
In the case of `CCN(CC)C(=O)c1ccc(-c2nnc(OC)c3ccccc23)cc1`, the cell number change stood at 22.9%. The AC50 under setting [2] is 1.84 µM [rising, partial curve, poor fit]. Also, the AC50 under setting [1] is 3.66 µM [rising, full curve].
Take `O=S(=O)(c1c(Cl)sc(Cl)c1Br)N1CCCC1`: the cell number change was -50.3%.
On to `O=[N+]([O-])c1ccccc1NC1CCN(Cc2ccccc2)CC1`, for which the cell number change is -2.33%. The AC50 under setting [1] was 0.164 µM [falling, full curve, poor fit].
For `O=[N+]([O-])c1cc(-c2ncccn2)c([N+](=O)[O-])s1`, the cell number change was -80%. The half-maximal activity concentration (AC50) under setting [2] was 25.9 µM [falling, single point]. Besides, under setting [1], the AC50 is 20.6 µM [falling, single point].
As to `COc1ccc(OC)c(/C=N/NC(=O)Cn2ccnc2C)c1`, the cell number change was 28.6%. In addition, the AC50 under setting [1] is 16.4 µM [rising, partial curve, poor fit].
As for `CNc1c(NS(=O)(=O)c2ccc(C(C)(C)C)cc2)c(=O)oc2ccccc12`, the cell number change was 26.5%. Further, the concentration at half-maximal activity (AC50) under setting [1] is 6.51 µM [rising, partial curve, poor fit].
Take `NS(=O)(=O)c1cccc(NC(=O)CCSc2ccc(Cl)cc2)c1`: the cell number change is -100%. For the same compound, the half-maximal activity concentration (AC50) under setting [2] is 29.1 µM [falling, single point]. Besides, the AC50 under setting [1] is 0.13 µM [falling, full curve, poor fit].
Consider `CCOc1cc(CN2CCN(C(=O)CC(C)C)CC2)ccc1OC`, for which the cell number change stood at 39%. Under setting [2], the concentration at half-maximal activity (AC50) was 32.6 µM [rising, single point].
On to `Clc1cccc(CSc2nnc(-c3cccnc3)n2Cc2ccco2)c1`, for which the cell number change was -4.93%. Besides, the concentration at half-maximal activity (AC50) under setting [1] was 2.91 µM [rising, full curve].
`Cc1cc(C)c2nc(-c3ccccn3)cc(C(=O)Nn3cnnc3)c2c1`: the cell number change was -12%. Besides, the AC50 under setting [1] was 0.146 µM [falling, full curve, poor fit].
As for `COc1cccc(C(=O)Nc2cccc(-c3ccccc3)c2)c1`, the concentration at half-maximal activity (AC50) under setting [1] was 1.3 µM [falling, full curve].
Regarding `O=C(COc1ccc(Br)cc1)N/N=C1/SCC(=O)N1Cc1ccccc1`, the cell number change is -2.46%. The concentration at half-maximal activity (AC50) under setting [1] is 11.6 µM [rising, partial curve, poor fit].
As for `CC1CCCCN1C(=O)CCNS(=O)(=O)c1ccc2c(c1)c(=O)n(C)c(=O)n2C` (configuration not stated), the cell number change is -24.5%. For the same compound, under setting [2], the AC50 was 1.16 µM [falling, full curve, poor fit]. The AC50 under setting [1] was 0.82 µM [falling, full curve].
For `Cc1ccc(C(=O)Cc2ccccc2)o1`, the cell number change came to 35.5%. Under setting [2], the concentration at half-maximal activity (AC50) is 29.1 µM [rising, single point]. For the same compound, the AC50 under setting [1] was 23.1 µM [rising, single point].
